From the supplement of paper PMC3334620
The full ranking holds about 33,000 sequences; the median of “E-score (-0.5 to 0.5)” is about -8e-05, and the highest 2% start at about 0.23. Some of the results follow.

These sequences were tested against T1, Nrg2 (UniProt P38082) (assay: PBM E-score (8-mer binding enrichment) (E-score (-0.5 to 0.5)); higher = stronger / more preferred TF binding). Settings: protein concentration: 100 nM; construct: GST-full length.
T1 sequence: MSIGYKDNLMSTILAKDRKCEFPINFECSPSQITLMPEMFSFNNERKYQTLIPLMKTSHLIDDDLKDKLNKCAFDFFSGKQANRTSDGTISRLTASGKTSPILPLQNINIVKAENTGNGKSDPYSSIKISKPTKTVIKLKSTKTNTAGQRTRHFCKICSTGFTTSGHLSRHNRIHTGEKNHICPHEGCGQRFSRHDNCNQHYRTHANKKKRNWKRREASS
Protocol: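 Universal 'all 10-mer' protein binding microarrays (Agilent AMADID 015681) probed with GST-tagged S. cerevisiae TFs (full-length or DBD) made by in vitro transcription/translation (PURExpress), about 100-200 nM. Bound TF was detected with fluorescent anti-GST. Each ungapped 8-mer (which stands for itself and its reverse complement) is scored by the PBM enrichment score (E-score), a modified Wilcoxon-Mann-Whitney statistic from -0.5 to +0.5, computed with the Universal PBM Analysis Suite. Scale: above 0.35 generally sequence-specific binding.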

In order of falling “PBM E-score” value:
1. GCAACTAA  0.288
2. ACTCGCGA  0.273
3. AACATAAT  0.248
4. AAGCGCGC  0.216
5. GCATATGA  0.205
6. ATTCTACA  0.191
7. TTGATCAA  0.185
8. GAGTTAGC  0.185
9. GAAATACC  0.184
10. AGTGTTCA  0.172
11. CTTCATGA  0.158
12. ACAATATC  0.158
13. CGCCCACA  0.156
14. ACACTAAC  0.155
15. TACAACCA  0.153
16. ATCAGAAT  0.153
17. ATTATGGC  0.151
18. ATAGGGCC  0.139
19. ATGCGCCC  0.137
20. GTACTAAA  0.121
21. ACAACGAA  0.119
22. ACGGACGA  0.119
23. AGGGTTAT  0.112
24. ACGCGCTG  0.109
25. CCGAGTTC  0.108
26. ACTGCAAT  0.103
27. CTTACTAC  0.102
28. AGTAAACA  0.101
29. ATCTGTTA  0.1
30. GTGGTATA  0.0994
31. CGGGATAG  0.0981
32. ACTAGTGC  0.0972
33. CAATGAAC  0.0934
34. ACGTGCTG  0.0915
35. CCATGAGA  0.0913
36. GACAGTAA  0.0902
37. ACAATTCC  0.0871
38. AGGGCTTG  0.0851
39. AGCAATCA  0.085
40. TCCCTCGA  0.0839
41. AGGCAGGG  0.0837
42. GATTGTCC  0.0806
43. AAGAAACT  0.0788
44. GTGGGATA  0.0749
45. AAATTGGG  0.0734
46. ACGAATCC  0.0708
47. ATCGCCCC  0.0686
48. ATGCGTGA  0.0673
49. AGCTCGTG  0.0659
50. CAAGAAGC  0.0651
51. AATATGGC  0.0624
52. ATCGTTTA  0.0491
53. GCCCCGCC  0.0441
54. CTGCACGA  0.0401
55. CAGCGAGC  0.0399
56. CAACGGAG  0.0386
57. CTGTGCCC  0.0331
58. CCGCCGGA  0.0331
59. AGCATCTG  0.0318
60. TAACCTGA  0.0287
61. ACAGTTAC  0.0257
62. GCCAGACC  0.0225
63. ACCAGGCA  0.0216
64. AGGGGACT  0.0216
65. CGATACGC  0.0215
66. CCTTCATA  0.0191
67. ATAGGAAT  0.0172
68. GTGCGCAA  0.0151
69. CTCTGTAC  0.015
70. GAAACCAA  0.0143
71. CAAAATGA  0.0129
72. CGCGTACA  0.0116
73. AGCCTGTC  0.011
74. AATGGGGA  0.0109
75. ATTTTTGG  0.0103
76. ACTAACGA  0.00448
77. ACCATGAG  0.00372
78. CGAACGCG  0.00338
79. CGGTCGGA  0.00234
80. CACACCCA  0.00158
81. TACTTAGA  0.00114
82. CAATTTTC  0.00102
83. ATAAGCCA  -0.00113
84. ATGAAGGG  -0.00192
85. CACCCGGA  -0.00226
86. CCCCCTGA  -0.00244
87. GTCTCCAA  -0.00942
88. CATACCGC  -0.0117
89. AGTGCACA  -0.0126
90. GACCATAA  -0.0185
91. AACCACGC  -0.025
92. AGCGTTCG  -0.03
93. CTATCGTA  -0.0314
94. CCACTCAG  -0.0321
95. CCGACGTA  -0.0323
96. GACACAAC  -0.039
97. ACCACTGG  -0.0408
98. AGCCCGCC  -0.0408
99. ATCAGTGG  -0.0444
100. CTAACGCC  -0.0506
101. CAGCATGG  -0.0508
102. AACCAAGC  -0.0517
103. AGCAGCAG  -0.0551
104. CGATAGAC  -0.0576
105. GCTATGTA  -0.0588
106. AAACGTTT  -0.0594
107. GACGCGCC  -0.0615
108. GTTGCGGA  -0.0637
109. CGTTGGGA  -0.0651
110. ACCGATCC  -0.0699
111. GTCGTCTA  -0.0718
112. CGTTTCGC  -0.0766
113. CGATCCCA  -0.08
114. AGTGCGTC  -0.0821
115. AAACAGTA  -0.0863
116. CGAGCCTA  -0.09
117. TCCGGGCA  -0.094
118. CAAGCTAC  -0.0943
119. CTTACAGC  -0.0948
120. CCAAGCCC  -0.0977
121. CTATGGTA  -0.0979
122. GAACGCTC  -0.107
123. CAGTAACA  -0.11
124. AGAGAGCC  -0.114
125. GTCACCAA  -0.114
126. GAAGCCCC  -0.115
127. CGTAGACC  -0.116
128. AGAGGGCC  -0.117
129. ATGCTGTC  -0.117
130. TGAATAAA  -0.124
131. CGTCGTGA  -0.129
132. GCTCACGA  -0.129
133. CGACCACA  -0.133
134. AGCTGGAG  -0.133
135. TAAAGGAA  -0.133
136. AAGAGTTA  -0.134
137. ATAGGGCG  -0.138
138. AGATCCTC  -0.14
139. CCGCAGTC  -0.14
140. ACGAGCAA  -0.142
141. CCTTACAG  -0.143
142. CCTCGATC  -0.144
143. AGGGGGCA  -0.148
144. CCTTTAGC  -0.148
145. ATATGACC  -0.153
146. ACGCACCC  -0.154
147. CCCCGGAC  -0.161
148. CGCCGAAG  -0.164
149. ATGTTTTA  -0.165
150. ACAGGTGG  -0.176
151. CCACGGTA  -0.177
152. CTACGTTC  -0.178
153. AATGGGCG  -0.179
154. CAAAATGC  -0.182
155. ACACCACG  -0.185
156. TCCTAGAA  -0.185
157. CCTCCTAC  -0.188
158. CTACGGAG  -0.189
159. GAGGAGAC  -0.199
160. GGAGGGAC  -0.2
161. ACCCGTCC  -0.208
162. AGGAGAGG  -0.211
163. AGCTCTCC  -0.212
164. CCTTATCC  -0.23
165. ACATTGGG  -0.239
166. CAGGACTG  -0.241
167. CTTTTATA  -0.242
168. GCCTCCAC  -0.259
169. AGGCCTCA  -0.264
170. ACCTTTGG  -0.273
171. GCCCAGGC  -0.3
172. TGGGGGAA  -0.436
